Results published in patent publication US9828412B2 (SOUTHERN MEDICAL UNIVERSITY, priority 2014, dated 2017).

Experiment: peptide made by a vendor (Fmoc solid-phase peptide synthesis)
Conditions: whole synthesis, reversed-phase HPLC

Substance: N′-Arg-Lys-Lys-Asn-Lys-Pro-Pro-Pro-Pro-Lys-Lys-NH2-C′
- final HPLC purity: 98.9%
